These are yes or no findings as the source states them, for the method shown. Binding seen in cells or lysates may run through a third protein. Here binding means that the protein was enriched with, or labelled near, the bait; the list need not be complete.
How the values were obtained:
Experiment in all cases: affinity purification with mass spectrometry; biotinylated purified bait on streptavidin-coated magnetic beads; prey: DNA/RNA-depleted extract of B. subtilis 168; relative ion scores against a 'no bait' pulldown; only the target purified
[1] = target: T1, Biotinylated full length PcrA (Geobacillus stearothermophilus), wild type (Geobacillus stearothermophilus) (UniProt P56255)
T1 sequence (chain, biotin): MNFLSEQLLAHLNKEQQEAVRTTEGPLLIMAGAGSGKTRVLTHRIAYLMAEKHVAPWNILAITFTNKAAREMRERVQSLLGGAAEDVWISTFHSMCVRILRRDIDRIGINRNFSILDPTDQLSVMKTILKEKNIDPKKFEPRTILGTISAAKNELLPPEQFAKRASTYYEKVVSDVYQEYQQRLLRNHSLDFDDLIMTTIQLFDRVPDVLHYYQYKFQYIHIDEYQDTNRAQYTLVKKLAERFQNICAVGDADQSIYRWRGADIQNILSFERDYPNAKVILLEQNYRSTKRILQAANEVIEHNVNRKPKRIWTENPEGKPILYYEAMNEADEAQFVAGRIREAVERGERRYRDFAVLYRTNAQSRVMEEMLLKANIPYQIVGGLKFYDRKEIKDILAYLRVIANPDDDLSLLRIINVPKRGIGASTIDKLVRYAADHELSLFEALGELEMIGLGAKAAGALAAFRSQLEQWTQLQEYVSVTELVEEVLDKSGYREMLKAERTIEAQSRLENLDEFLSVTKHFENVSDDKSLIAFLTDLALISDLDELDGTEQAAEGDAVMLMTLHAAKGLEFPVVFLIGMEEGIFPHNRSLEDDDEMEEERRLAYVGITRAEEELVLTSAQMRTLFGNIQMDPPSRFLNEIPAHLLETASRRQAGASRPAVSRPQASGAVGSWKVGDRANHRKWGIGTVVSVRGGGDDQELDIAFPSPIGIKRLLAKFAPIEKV

[2] = target: T2, Biotinylated full length PcrA L714A (Geobacillus stearothermophilus) (UniProt P56255)
T2 sequence (chain, biotin): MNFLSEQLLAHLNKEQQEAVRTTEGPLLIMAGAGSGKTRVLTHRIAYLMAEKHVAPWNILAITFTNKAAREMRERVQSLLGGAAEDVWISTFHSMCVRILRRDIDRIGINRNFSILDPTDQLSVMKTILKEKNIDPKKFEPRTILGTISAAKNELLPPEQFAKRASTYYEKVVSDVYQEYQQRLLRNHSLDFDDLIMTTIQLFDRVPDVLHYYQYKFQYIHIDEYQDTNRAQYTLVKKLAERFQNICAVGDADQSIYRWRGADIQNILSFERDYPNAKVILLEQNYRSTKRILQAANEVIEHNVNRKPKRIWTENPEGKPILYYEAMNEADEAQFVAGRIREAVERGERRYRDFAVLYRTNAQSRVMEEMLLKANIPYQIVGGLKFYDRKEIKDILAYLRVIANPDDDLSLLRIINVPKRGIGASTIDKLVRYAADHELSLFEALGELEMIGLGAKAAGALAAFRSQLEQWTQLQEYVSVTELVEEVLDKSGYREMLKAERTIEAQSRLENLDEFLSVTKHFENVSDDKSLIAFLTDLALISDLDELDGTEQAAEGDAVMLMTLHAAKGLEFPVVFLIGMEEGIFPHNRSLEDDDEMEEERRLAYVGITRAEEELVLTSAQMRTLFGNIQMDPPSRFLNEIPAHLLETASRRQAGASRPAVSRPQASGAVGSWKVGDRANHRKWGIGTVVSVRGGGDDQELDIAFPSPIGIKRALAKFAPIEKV

[3] = target: T3, Biotinylated full length PcrA K712A (Geobacillus stearothermophilus) (UniProt P56255)
T3 sequence (chain, biotin): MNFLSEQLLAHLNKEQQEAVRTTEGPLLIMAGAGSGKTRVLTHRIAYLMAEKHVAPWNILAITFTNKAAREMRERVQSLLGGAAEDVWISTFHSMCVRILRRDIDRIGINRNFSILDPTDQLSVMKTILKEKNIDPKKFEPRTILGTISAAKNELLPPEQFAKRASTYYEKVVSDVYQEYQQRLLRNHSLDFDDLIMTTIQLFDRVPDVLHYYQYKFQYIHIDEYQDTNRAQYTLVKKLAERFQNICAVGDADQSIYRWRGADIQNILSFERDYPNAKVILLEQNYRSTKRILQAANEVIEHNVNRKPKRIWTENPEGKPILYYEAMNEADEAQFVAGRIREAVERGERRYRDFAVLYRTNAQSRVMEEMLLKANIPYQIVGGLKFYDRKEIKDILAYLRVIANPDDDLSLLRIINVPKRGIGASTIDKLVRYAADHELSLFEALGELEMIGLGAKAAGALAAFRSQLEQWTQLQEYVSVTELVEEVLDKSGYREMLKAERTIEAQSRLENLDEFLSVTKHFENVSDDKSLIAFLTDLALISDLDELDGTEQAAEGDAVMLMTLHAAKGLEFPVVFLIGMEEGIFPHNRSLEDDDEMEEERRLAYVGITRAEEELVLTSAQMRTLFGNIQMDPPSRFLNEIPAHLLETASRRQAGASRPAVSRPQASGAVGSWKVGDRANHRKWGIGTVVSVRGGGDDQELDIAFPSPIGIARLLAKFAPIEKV

Measured: binding

B1: YvgS/HelD (SF1 helicase), Bacillus subtilis (enzyme, UniProt O32215 1-774)
chain: MNQQDKEWKEEQSRIDEVLKELEKKERFLETSAGGLKHDIIGLRKSFWEDVKVNFDDAHEAIETMASIKQQAELLSDREHNHRRMDQQLKRIHQLKKSPYFGRIDFIENGEEQAERIYIGLASCLDEKEEHFLIYDWRAPISSLYYNYSPGKAEYEVPGETIEGEMVLKRQFMIKNGTLKAMFNTDMTIGDEMLQEVLSHHSDTQMKNIVSTIQKEQNQIIRNEKSKILIVQGAAGSGKTSAALQRVAYLLYRHRGVIDAGQIVLFSPNFLFNSYVSSVLPELGEENMEQATFQEYIEHRLGRKFKCESPFDQLEYCLTETKGGDFPTRLAGITWKAGLSFQQFINEYVTRLSSEGMIFKNIIFRGQKLITKEQIQSYFYSLDQNHSIPNRMEQTAKWLLSELNKLEKKERRKDWVVHEAELLDKEDYLDVYKKLQERKRFSESTFNDYQREQQLLAAIIVKKAFKPLKQAVRLLAFLDVTQLYLQLFSGWGGKFQHEKMDAIGELTRSAFTDNKLLYEDAAPFLYMQDLIEGRKKNTKIKHLFIDEAQDYSPFQMAYMRSIFPAASMTVLGDINQSIYAHTINGDQRMDACFEDEPAEYVRLKRTYRSTRQIVEFTKAMLQDGADIEPFNRSGEMPLVVKTEGHESLCQKLAQEIGRLKKKGHETIAVICKTAHQCIQAHAHMSEYTDVRLIHKENQPFQKGVCVIPVYLAKGIEFDAVLVYDASEEHYHTEHDRRLLYTACTRAMHMLAVFYTGEASPFVTAVPPHLYQIAE
binds: all assays above

B2: UvrB, Bacillus subtilis (protein, UniProt P37954 1-661)
chain: MKDRFELVSKYQPQGDQPKAIEKLVKGIQEGKKHQTLLGATGTGKTFTVSNLIKEVNKPTLVIAHNKTLAGQLYSEFKEFFPNNAVEYFVSYYDYYQPEAYVPQTDTFIEKDASINDEIDKLRHSATSALFERRDVIIIASVSCIYGLGSPEEYREMVVSLRTEMEIERNELLRKLVDIQYARNDIDFQRGTFRVRGDVVEIFPASRDEHCVRVEFFGDEIERIREVDALTGEILGDRDHVAIFPASHFVTRAEKMEKAIQNIEKELEEQLKVMHENGKLLEAQRLEQRTRYDLEMMREMGFCSGIENYSRHLTLRPPGSTPYTLLDYFPDDFMIVVDESHVTIPQVRGMFNGDQARKQVLVDHGFRLPSALDNRPLRFEEFEKHMHNIVYVSATPGPYEIEHTDEMVEQIIRPTGLLDPLIDVRPIEGQIDDLIGEIQARIERNERVLVTTLTKKMSEDLTDYLKEIGIKVNYLHSEIKTLERIEIIRDLRLGKYDVLVGINLLREGLDIPEVSLVAILDADKEGFLRSERSLIQTIGRAARNAEGRVIMYADKITKSMEIAINETKRRREQQERFNEEHGITPKTINKEIRDVIRATVAAEDKAEYKTKAAPKLSKMTKKERQKVVEQMEHEMKEAAKALDFERAAELRDLLLELKAEG
binds: all assays above

— PMC5397179
